{"source": "PubChem BioAssay AID540256", "about": "(National Center for Advancing Translational Sciences (NCATS), 2011)", "note": "In all, about 300,000 compounds went through this assay and about 3,700 (1.2%) were called active. This list was built around the results that the source calls inconclusive (neither active nor inactive); the mix of calls is not that of the screen. The call rests on the fitted dose curve; tested in HEK293 cells. Potencies beside an inconclusive call are fits to weak or partial responses and may not hold up. Potency means the concentration at half of the fitted maximal effect."}
{"test": "qHTS for Inhibitors of binding or entry into cells for Lassa Virus; further: nearly all actives have a fitted effect of over 50% in size", "conditions": "Lassa virus pseudotype entry inhibition, cell reporter; series mostly up to 37.9 µM"}
{"smiles": "Cc1ccc(NC(=O)c2cc(S(=O)(=O)N3CCCC(C)C3)cn2C)c(Br)c1", "note": "(configuration not stated)", "Potency": "inactive"}
{"smiles": "O=C(NN1CCCCC1)c1ccc(COc2ccc(Cl)cc2)cc1", "Potency": "inactive"}
{"smiles": "O=C(Nc1ccc(S(=O)(=O)N2CCCC2)cc1)c1cccc(OC(F)F)c1", "Potency": "inconclusive: 7.94 µM [inhibitor, partial curve, poor fit]"}
{"smiles": "O=C(COC(=O)c1ccccc1SCC(=O)N1CCCC1)Nc1ccc(OC(F)F)cc1", "Potency": "inconclusive: 6.31 µM [activator, single point]"}
{"smiles": "c1ccc(NC2=Nc3ccccc3CC2)cc1", "Potency": "inconclusive: 12.6 µM [activator, single point]"}
{"smiles": "CSc1ccccc1OCc1cc(C(=O)N(C)Cc2cc(C)[nH]n2)no1", "Potency": "inconclusive: 35.5 µM [inhibitor, single point]"}
{"smiles": "COc1cc(NC(=S)NC2CC(C)(C)NC(C)(C)C2)cc(OC)c1", "Potency": "inconclusive: 17.8 µM [activator, partial curve, poor fit]"}
{"smiles": "O=c1c2cc3c(cc2nc2sc(Nc4ccc(F)c(Cl)c4)nn12)OCO3", "Potency": "inconclusive: 6.31 µM [inhibitor, single point]"}
{"smiles": "Cc1csc(NC(=O)Cc2ccccc2Cl)n1", "Potency": "inconclusive: 6.31 µM [inhibitor, single point]"}
{"smiles": "CC(C)(C)n1nnnc1C(c1ccc(C(F)(F)F)cc1)N(Cc1ccc(F)cc1)Cc1ccco1", "note": "(configuration not stated)", "Potency": "inconclusive: 35.5 µM [inhibitor, single point]"}
{"smiles": "CC1CN(C(C)C(=O)NC(c2ccccc2)c2ccccc2)CC(C)O1", "note": "(configuration not stated)", "Potency": "inconclusive: 5.62 µM [inhibitor, single point]"}
{"smiles": "Cc1ccc(NC(=O)CNC(=O)c2ccc(C(C)(C)C)cc2)cc1S(=O)(=O)N1CCOCC1", "Potency": "inconclusive: 11.2 µM [inhibitor, single point]"}
{"smiles": "COc1ccc(CCNCc2ccsc2)cc1OC", "Potency": "inconclusive: 11.2 µM [activator, partial curve, poor fit]"}
{"smiles": "CC1CC(C)CN(C(=O)CSC2=Nc3ccccc3C3=NC(Cc4c[nH]c5ccccc45)C(=O)N23)C1", "note": "(configuration not stated)", "Potency": "active: 2.59 µM"}
{"smiles": "O=C(NC1CC(=O)N(c2cccc(F)c2)C1)C1CC1", "note": "(configuration not stated)", "Potency": "inactive"}
{"smiles": "CCCC(=O)Nc1ccc(C(=O)N/N=C/c2ccc[nH]2)cc1", "Potency": "active: 10 µM"}
{"smiles": "COc1cc(C(=O)O)ccc1OCC(=O)N1CCOCC1", "Potency": "inconclusive: 1 µM [inhibitor, partial curve, poor fit]"}
{"smiles": "O=S(=O)(c1ccccc1)N1CCN(C2CCCCCCC2)CC1", "Potency": "inconclusive: 0.206 µM [inhibitor, partial curve, poor fit]"}
{"smiles": "Nc1cccc(-c2cn3ccsc3n2)c1", "Potency": "inactive"}
{"smiles": "CCN(c1ccccc1)S(=O)(=O)c1ccc(C(=O)NCC(c2ccccc2OC)N2CCCC2)cc1", "note": "(configuration not stated)", "Potency": "inconclusive: 35.5 µM [inhibitor, single point]"}
{"smiles": "Cc1oc(/N=C/c2ccccc2)c(C#N)c1C", "Potency": "inactive"}
{"smiles": "CCc1c(C)sc(NC(=O)C2CC2c2ccccc2)c1C(N)=O", "note": "(configuration not stated)", "Potency": "active: 2.91 µM"}
{"smiles": "COc1cccc(-c2nnc(SCC(=O)NCc3ccc4c(c3)OCO4)n2Cc2ccco2)c1", "Potency": "inactive"}
{"smiles": "CC(=O)c1cc(CN2CCC(C(=O)Nc3cccc(-c4cscn4)c3)CC2)cs1", "Potency": "inconclusive: 14.1 µM [inhibitor, single point]"}
{"smiles": "S=C(Nc1ccccc1Cl)N1CCN(c2ccccn2)CC1", "Potency": "inconclusive: 11.2 µM [inhibitor, partial curve, poor fit]"}
{"smiles": "O=S1(=O)N=C(N2CCCC2)c2ccccc21", "Potency": "inconclusive: 3.98 µM [inhibitor, partial curve, poor fit]"}
{"smiles": "Cc1nc2ccc(NC(=O)c3cccc(S(=O)(=O)N(C)c4ccccc4)c3)cc2s1", "Potency": "inconclusive: 22.4 µM [inhibitor, single point]"}
{"smiles": "COc1cccc(C2c3[nH]c4ccccc4c3CCN2Cc2cnc(C)s2)c1OC", "note": "(configuration not stated)", "Potency": "inconclusive: 10 µM [inhibitor, single point]"}
{"smiles": "CCN(CC)CCCN=C1NC(c2ccccc2)C(C(=O)OC)=C(C)N1CC", "note": "(configuration not stated)", "Potency": "inconclusive: 1.06 µM [activator, single point]"}
{"smiles": "Cc1nn(CC(=O)NNC(=O)c2ccccc2F)c([N+](=O)[O-])c1Br", "Potency": "inactive"}
{"smiles": "CCOC(=O)C1(Cc2ccccc2C(F)(F)F)CCN(C(C)CCn2cccn2)CC1", "note": "(configuration not stated)", "Potency": "inconclusive: 6.31 µM [inhibitor, partial curve, poor fit]"}
{"smiles": "C=CC(=O)NCCCc1cc(C(C)(C)C)c(O)c(C(C)(C)C)c1", "Potency": "inconclusive: 35.5 µM [inhibitor, single point]"}
{"smiles": "Cc1ccc(-n2c(=O)c3ccc(C(=O)NCc4ccccc4Cl)cc3n(Cc3ccccc3F)c2=O)cc1", "Potency": "inactive"}
{"smiles": "COc1ccc(N2CCN(CCCNC(=O)C(=O)c3c[nH]c4ccccc34)CC2)cc1", "Potency": "inconclusive: 35.5 µM [inhibitor, single point]"}
{"smiles": "Cc1ccnc(NC(=O)CNC(=O)c2ccc(C)s2)c1", "Potency": "inconclusive: 1 µM [activator, partial curve, poor fit]"}
{"smiles": "COc1ccc(C2Nc3ccccc3C(=O)N2c2ccccc2)cc1Cn1cc([N+](=O)[O-])cn1", "note": "(configuration not stated)", "Potency": "inconclusive: 11.2 µM [inhibitor, partial curve, poor fit]"}
{"smiles": "COc1cc(OC)cc(C(=O)NC(=S)Nc2ccc(N3CCCC3)cc2)c1", "Potency": "inconclusive: 15.8 µM [inhibitor, single point]"}
{"smiles": "CC(C)Cn1cnc2c(c1=N)C(c1ccccc1)C1=C(CC(C)(C)CC1=O)O2", "note": "(configuration not stated)", "Potency": "inconclusive: 35.5 µM [inhibitor, single point]"}
{"smiles": "COc1ccc(-c2cc(C(=O)N(C)Cc3nc4ccccc4c(=O)[nH]3)c3ccccc3n2)cc1OC", "Potency": "inconclusive: 17.8 µM [inhibitor, partial curve]"}
{"smiles": "CCC(C)n1c(O)c(C(c2ccccn2)c2c(O)n(C(C)CC)c(=S)[nH]c2=O)c(=O)[nH]c1=S", "note": "(configuration not stated)", "Potency": "inactive"}
{"smiles": "COc1ccc(Nc2ncnc3c2oc2ccccc23)cc1", "Potency": "inconclusive: 3.98 µM [activator, partial curve, poor fit]"}
{"smiles": "Cc1ccc(C)c(N2CCN(CCCNC(=O)Cn3ncc4c5ccccc5n(C)c4c3=O)CC2)c1", "Potency": "inactive"}
{"smiles": "Cc1ccccc1N(C(=O)Cc1cccs1)C(C(=O)NCC1CCCO1)c1cccnc1", "note": "(configuration not stated)", "Potency": "inconclusive: 5.17 µM [activator, single point]"}
{"smiles": "CC(C)NC(=O)/C(=C/c1ccco1)c1ccccc1", "Potency": "inactive"}
{"smiles": "COc1cc(C(=O)NC(=S)NNC(=O)[C@H]2C[C@@H]2c2ccccc2)cc(OC)c1OC", "Potency": "inconclusive: 12.6 µM [inhibitor, partial curve, poor fit]"}
{"smiles": "COc1ccc(C(C)(C)C)cc1NS(=O)(=O)c1cccc2cccnc12", "Potency": "inconclusive: 12.6 µM [inhibitor, single point]"}
{"smiles": "CCOC(=O)c1cn(-c2ccccc2)nc1-c1cccnc1", "Potency": "inactive"}
{"smiles": "CCCCOC(=O)Nc1cc(C)c(Cl)cc1OC", "Potency": "inconclusive: 1.3 µM [inhibitor, single point]"}
{"smiles": "CCc1cccc(CC)c1C=Cc1cncc(C(=O)NC)c1", "Potency": "inconclusive: 3.97 µM [inhibitor, partial curve, poor fit]"}
{"smiles": "Cc1ccccc1NC(=O)CCn1cnc2onc(-c3ccc(F)cc3)c2c1=O", "Potency": "inconclusive: 6.31 µM [activator, partial curve, poor fit]"}
{"smiles": "COc1ccc(Oc2c(Cl)cnn(-c3ccc(Cl)c(Cl)c3)c2=O)cc1", "Potency": "inconclusive: 11.2 µM [inhibitor, partial curve, poor fit]"}
{"smiles": "Cc1ccc(-n2c(O)c(C=Nc3ccccc3-c3n[nH]c(=S)[nH]c3=O)c3ccccc3c2=O)c(C)c1", "Potency": "inactive"}
{"smiles": "O=C(NCCc1ccccc1)/C(=C/c1ccco1)c1ccccc1", "Potency": "inactive"}
{"smiles": "COc1ccc(Br)cc1/C=N/N1CCN(Cc2ccccc2Cl)CC1", "Potency": "inactive"}
{"smiles": "O=C(Cc1nnc(NC(=O)c2ccccc2)s1)N/N=C/c1cccc(O)c1", "Potency": "inconclusive: 35.5 µM [inhibitor, single point]"}
{"smiles": "CC(=O)/C(C#N)=C1\\NC(=O)C(Cc2ccc(F)cc2)S1", "note": "(configuration not stated)", "Potency": "inconclusive: 35.5 µM [inhibitor, single point]"}
{"smiles": "O=C(CN1C(=O)COc2ccc(S(=O)(=O)N3CCOCC3)cc21)NCc1ccc(F)cc1", "Potency": "inconclusive: 7.94 µM [activator, partial curve]"}
{"smiles": "COc1cc(C2CC(=O)c3c([nH]c(C(=O)OCCOC(C)C)c3C)C2)cc(OC)c1OC", "note": "(configuration not stated)", "Potency": "inconclusive: 29.1 µM [inhibitor, single point]"}
{"smiles": "CC(C)CN1CCc2nc(N3CCN(C)CC3)ncc2C1", "Potency": "inconclusive: 7.94 µM [activator, partial curve, poor fit]"}
{"smiles": "CN(CC(=O)Nc1ccc(Cl)c(Cl)c1)C(=O)C12CC3CC(CC(C3)C1)C2", "Potency": "inconclusive: 22.4 µM [inhibitor, partial curve, poor fit]"}
{"smiles": "COc1ccc(CC(=O)Nc2ccc3c(c2)CCC3)cc1OC", "Potency": "active: 11.2 µM"}
{"smiles": "COc1ccc(C(C(=O)NC2CCCCC2)N(C(=O)CCl)c2cccc(Cl)c2)cc1", "note": "(configuration not stated)", "Potency": "active: 3.55 µM"}
{"smiles": "C/C(=N\\NC(=O)COc1ccc(C(C)(C)C)cc1)c1cc2ccccc2o1", "Potency": "active: 3.16 µM"}
{"smiles": "Cc1cccc(C(CC(=O)NCc2ccco2)c2ccccc2)c1O", "note": "(configuration not stated)", "Potency": "inconclusive: 4.61 µM [inhibitor, full curve, poor fit]"}
{"smiles": "Cc1ccc(Nc2c3c(nc4nncn24)CCC3)cc1C", "Potency": "inactive"}
{"smiles": "Cc1ccc(C(=O)C[n+]2ccc3ccccc3c2)cc1", "Potency": "inconclusive: 7.08 µM [activator, partial curve]"}
{"smiles": "O=C(C[n+]1ccc(Cc2ccccc2)cc1)Nc1ccc([N+](=O)[O-])cc1Cl", "Potency": "inactive"}
